Experimental data published in paper PMC9776959.
Results are given in words; binding and its absence hold for the method and conditions named. In cells and extracts the contact can be indirect. Some results given as binding are weak or reduced against the parent protein; the word gives no strength. For some assays here: Where a sequence is shown, tags or fusion partners need not be part of it.

By UniProt entry, the sequences of proteins in these tests, tags left out.
UniProt O60934: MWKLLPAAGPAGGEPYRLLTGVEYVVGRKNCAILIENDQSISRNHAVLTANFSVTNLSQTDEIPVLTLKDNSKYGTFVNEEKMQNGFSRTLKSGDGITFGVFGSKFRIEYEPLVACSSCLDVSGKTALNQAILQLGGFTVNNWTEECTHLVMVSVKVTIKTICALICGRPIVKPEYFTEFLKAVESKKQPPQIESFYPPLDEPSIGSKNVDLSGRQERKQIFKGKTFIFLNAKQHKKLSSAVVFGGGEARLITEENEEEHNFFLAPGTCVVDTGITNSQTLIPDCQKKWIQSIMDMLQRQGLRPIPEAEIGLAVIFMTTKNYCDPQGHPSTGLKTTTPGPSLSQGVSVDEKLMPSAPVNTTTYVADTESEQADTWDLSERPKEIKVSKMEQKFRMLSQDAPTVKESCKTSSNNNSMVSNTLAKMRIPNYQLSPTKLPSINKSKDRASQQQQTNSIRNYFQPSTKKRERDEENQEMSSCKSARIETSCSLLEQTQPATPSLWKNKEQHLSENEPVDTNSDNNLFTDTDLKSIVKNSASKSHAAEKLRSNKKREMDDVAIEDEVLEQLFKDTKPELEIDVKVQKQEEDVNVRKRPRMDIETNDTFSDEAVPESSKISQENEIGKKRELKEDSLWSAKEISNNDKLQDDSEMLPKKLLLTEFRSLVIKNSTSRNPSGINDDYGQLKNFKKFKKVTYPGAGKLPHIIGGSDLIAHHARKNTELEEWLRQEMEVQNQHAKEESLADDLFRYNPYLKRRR
UniProt Q14676: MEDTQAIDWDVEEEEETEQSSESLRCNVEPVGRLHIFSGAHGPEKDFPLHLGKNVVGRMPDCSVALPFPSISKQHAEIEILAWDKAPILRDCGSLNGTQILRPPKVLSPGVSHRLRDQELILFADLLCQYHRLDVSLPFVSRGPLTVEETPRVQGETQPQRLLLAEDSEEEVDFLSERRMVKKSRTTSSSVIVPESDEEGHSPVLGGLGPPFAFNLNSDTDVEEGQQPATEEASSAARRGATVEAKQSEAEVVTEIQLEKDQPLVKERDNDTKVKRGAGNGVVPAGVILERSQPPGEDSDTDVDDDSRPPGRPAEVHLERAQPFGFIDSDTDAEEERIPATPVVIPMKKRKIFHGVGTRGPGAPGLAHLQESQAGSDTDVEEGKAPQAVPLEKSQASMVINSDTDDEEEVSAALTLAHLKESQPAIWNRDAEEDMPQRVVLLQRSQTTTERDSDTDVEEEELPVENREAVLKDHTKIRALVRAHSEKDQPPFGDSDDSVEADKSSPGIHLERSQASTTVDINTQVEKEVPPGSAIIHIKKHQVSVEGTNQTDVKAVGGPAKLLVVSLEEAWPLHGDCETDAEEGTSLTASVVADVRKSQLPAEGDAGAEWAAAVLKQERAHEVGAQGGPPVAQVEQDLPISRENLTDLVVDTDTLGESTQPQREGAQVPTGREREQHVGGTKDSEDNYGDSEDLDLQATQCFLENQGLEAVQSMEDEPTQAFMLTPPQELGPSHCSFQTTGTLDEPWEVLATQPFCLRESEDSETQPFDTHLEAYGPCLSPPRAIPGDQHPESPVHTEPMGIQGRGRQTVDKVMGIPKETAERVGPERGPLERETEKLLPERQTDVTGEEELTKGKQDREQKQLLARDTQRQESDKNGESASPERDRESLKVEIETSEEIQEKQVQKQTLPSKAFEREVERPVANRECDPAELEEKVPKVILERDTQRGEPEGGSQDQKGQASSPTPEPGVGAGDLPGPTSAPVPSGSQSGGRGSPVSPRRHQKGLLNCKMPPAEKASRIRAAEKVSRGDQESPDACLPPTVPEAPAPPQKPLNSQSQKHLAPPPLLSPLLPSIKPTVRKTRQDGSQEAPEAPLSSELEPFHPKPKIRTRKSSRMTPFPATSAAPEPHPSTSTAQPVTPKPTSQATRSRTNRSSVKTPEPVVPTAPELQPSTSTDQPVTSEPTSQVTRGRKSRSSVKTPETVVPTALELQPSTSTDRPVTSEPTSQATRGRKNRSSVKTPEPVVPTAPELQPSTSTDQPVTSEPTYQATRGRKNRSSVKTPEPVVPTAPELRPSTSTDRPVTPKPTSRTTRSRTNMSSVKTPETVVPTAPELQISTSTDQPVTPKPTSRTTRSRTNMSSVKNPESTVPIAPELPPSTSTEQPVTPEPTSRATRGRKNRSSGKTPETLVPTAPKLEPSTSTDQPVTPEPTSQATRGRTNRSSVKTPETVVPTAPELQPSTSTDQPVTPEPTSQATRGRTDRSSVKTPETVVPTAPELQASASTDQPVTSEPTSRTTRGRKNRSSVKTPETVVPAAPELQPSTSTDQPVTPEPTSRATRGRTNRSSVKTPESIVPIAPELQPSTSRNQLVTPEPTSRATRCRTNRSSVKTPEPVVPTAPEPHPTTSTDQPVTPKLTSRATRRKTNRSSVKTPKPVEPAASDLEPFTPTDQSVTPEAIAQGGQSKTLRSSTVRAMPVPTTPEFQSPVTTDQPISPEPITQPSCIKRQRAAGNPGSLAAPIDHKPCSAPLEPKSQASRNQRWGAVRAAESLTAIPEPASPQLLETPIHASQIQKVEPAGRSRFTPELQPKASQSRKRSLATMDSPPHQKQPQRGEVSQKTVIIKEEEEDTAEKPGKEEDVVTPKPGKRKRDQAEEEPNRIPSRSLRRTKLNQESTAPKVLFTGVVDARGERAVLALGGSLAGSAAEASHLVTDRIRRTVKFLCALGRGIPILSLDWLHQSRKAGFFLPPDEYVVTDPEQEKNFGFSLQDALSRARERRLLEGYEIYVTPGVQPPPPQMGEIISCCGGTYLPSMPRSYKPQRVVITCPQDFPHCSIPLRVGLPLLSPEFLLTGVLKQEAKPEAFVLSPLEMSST

What was measured:
3xFLAG-TRIP13 (human) = biological target: T1, 3xFLAG-TRIP13 (human) (UniProt Q15645); assay: co-IP; FLAG immunoprecipitation from cells overexpressing 3xFLAG-TRIP13 and the Myc-MRE11 domain deletion series; buffer X (100 mM Tris-HCl, 250 mM NaCl, 1 mM EDTA, 1% NP-40) with Benzonase, 4 °C
T1 sequence: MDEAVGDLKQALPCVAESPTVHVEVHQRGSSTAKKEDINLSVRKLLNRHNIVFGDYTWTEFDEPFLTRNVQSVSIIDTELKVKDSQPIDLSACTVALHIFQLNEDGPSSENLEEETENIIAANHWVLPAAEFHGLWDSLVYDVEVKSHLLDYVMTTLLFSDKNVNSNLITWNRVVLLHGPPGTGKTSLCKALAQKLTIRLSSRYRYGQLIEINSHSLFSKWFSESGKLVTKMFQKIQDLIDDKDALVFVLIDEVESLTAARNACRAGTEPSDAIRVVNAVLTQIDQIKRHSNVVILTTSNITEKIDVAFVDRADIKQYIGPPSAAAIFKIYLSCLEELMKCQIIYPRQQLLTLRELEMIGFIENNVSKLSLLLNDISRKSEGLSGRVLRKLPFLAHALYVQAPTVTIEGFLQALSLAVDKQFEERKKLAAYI

[1] = biological target: T2, endogenous MRE11 (human (endogenous in U-2-OS and DLD-1)) (UniProt P49959); assay: co-IP; immunoprecipitation of MRE11; cells with or without irradiation, IAA-induced TRIP13 depletion or mirin
T2 sequence: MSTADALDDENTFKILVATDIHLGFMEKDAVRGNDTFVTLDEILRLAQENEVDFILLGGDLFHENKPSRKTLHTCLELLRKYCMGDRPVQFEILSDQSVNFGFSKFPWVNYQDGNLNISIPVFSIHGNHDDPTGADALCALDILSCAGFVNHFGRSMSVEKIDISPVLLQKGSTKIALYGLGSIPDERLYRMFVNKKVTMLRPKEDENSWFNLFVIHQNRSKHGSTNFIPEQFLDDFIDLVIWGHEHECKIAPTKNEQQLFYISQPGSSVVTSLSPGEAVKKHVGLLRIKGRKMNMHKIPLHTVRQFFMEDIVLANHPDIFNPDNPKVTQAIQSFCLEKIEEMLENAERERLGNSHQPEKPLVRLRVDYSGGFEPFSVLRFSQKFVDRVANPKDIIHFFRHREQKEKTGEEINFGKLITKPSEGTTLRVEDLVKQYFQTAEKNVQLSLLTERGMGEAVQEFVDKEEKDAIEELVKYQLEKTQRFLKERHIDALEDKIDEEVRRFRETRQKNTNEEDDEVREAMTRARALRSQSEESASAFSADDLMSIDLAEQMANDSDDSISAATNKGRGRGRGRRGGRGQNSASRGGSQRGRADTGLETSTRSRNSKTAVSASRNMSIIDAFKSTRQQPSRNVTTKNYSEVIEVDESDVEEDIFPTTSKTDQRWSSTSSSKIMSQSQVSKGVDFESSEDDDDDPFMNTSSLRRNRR

Row | binding (3xFLAG-TRIP13 (human)) | binding [1] | Substance
1 | no binding | – | NBS1 (from UniProt O60934 1-754)
2 | – | binds | MDC1 (from UniProt Q14676 1-2089)
